According to publication PMC12009988:
No constants are given. Whether binding was seen depends on the method and setting. Binding seen in cells or lysates may run through a third protein. Some binding calls cover weakened binding; strength is not graded here. For some assays here: Where a sequence is shown, tags or fusion partners need not be part of it.

Protein sequences, listed by entry. Tags and fused reporters are not part of them.
UniProt Q92831: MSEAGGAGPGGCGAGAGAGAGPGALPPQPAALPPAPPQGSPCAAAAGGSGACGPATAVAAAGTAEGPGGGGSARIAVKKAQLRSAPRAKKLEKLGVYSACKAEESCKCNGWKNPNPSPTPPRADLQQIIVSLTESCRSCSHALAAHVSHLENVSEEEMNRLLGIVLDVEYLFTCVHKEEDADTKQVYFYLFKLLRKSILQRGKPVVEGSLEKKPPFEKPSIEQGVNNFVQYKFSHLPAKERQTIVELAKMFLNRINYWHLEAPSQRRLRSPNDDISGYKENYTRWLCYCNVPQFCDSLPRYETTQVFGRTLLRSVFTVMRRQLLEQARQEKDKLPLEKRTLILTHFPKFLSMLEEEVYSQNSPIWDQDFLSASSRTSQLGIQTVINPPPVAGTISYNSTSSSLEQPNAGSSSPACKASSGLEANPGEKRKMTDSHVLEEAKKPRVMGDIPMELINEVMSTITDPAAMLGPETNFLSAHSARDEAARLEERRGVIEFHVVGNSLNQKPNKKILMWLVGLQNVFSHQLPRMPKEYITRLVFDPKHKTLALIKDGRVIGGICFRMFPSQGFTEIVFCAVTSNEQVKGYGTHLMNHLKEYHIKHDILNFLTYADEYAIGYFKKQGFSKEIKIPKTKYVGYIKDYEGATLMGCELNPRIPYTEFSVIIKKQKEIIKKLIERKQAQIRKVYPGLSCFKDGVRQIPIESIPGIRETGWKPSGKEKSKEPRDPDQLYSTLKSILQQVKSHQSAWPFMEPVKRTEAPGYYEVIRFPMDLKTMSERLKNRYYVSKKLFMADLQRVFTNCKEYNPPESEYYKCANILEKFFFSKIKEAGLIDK

Legend:
[1] = biological target: Ku80 (construct of the experiments with HDAC8, PCAF and CBX4 not stated) (UniProt P13010); assay: co-IP; co-IP with and without irradiation (Supplementary Fig. 3b)
[2] = biological target: Ku80 (construct of the experiments with HDAC8, PCAF and CBX4 not stated) (UniProt P13010); assay: co-IP; co-IP with DNase I treatment, with and without radiation exposure

With “p300-CBP-associated factor (PCAF) (from UniProt Q92831 1-832) (enzyme)” as the molecule, how does the binding [1] read?
The binding was “binds”.

B1: HDAC8 (Histone deacetylase 8) (enzyme, UniProt Q9BY41 1-377)
chain: MEEPEEPADSGQSLVPVYIYSPEYVSMCDSLAKIPKRASMVHSLIEAYALHKQMRIVKPKVASMEEMATFHTDAYLQHLQKVSQEGDDDHPDSIEYGLGYDCPATEGIFDYAAAIGGATITAAQCLIDGMCKVAINWSGGWHHAKKDEASGFCYLNDAVLGILRLRRKFERILYVDLDLHHGDGVEDAFSFTSKVMTVSLHKFSPGFFPGTGDVSDVGLGKGRYYSVNVPIQDGIQDEKYYQICESVLKEVYQAFNPKAVVLQLGADTIAGDPMCSFNMTPVGIGKCLKYILQWQLATLILGGGGYNLANTARCWTYLTGVILGKTLSSEIPDHEFFTAYGPDYVLEITPSCRPDRNEPHRIQQILNYIKGNLKHVV
Which binding [2] does the source give for B1 here?
The binding was “binds”.
